Percent effect of library compounds

A: 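Growth of Mycobacterium tuberculosis over 4 days (cholesterol / DPPC medium with tyloxapol); the read-out is not stated. Compounds at 50 µM. Higher reads as more growth inhibition (inferred: compounds with an IC50 in retests scored well above the rest). About 69,000 compounds were tested under these conditions; 0.54% (about 370) showed 50% or more at least once.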
B: 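Whole-cell growth test on Mycobacterium tuberculosis, read after 3 days in glucose-containing 7H9 medium; the read-out is not stated. Tested at 50 µM. The record gives no direction; compounds that gave an IC50 in retests scored well above the rest, so higher reads as more growth inhibition. Of about 69,000 compounds tested this way, about 760 (1.1%) reached 50% or more in at least one test.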

The filed quantity is “Percent Effect” (%).
How 0% and 100% were set is not recorded. Most values in the screen are low, and negative values occur.
This is an unselected part of the compounds tested.
Two or more numbers in one place are separate tests of the same structure; such repeats can differ widely.

For N#Cc1cccnc1Oc1cc(F)c(CN2CCCC2)c(Cl)c1 the result was A: -22.7%; B: -19.64%. Result for CCc1nnc(CN2CCC3(CCC(=O)N(C4CCCC4)C3)CC2)o1 was A: -10.42%; B: -1.742% and -14.38%. COc1ccc(C(=O)N2CCC3(CC2)c2ccccc2[C@@H](N)[C@@H]3O)cc1 read A: -0.7691%; B: -2.966%. With Cc1ncc(S(=O)(=O)N(CC(C)C)c2cccc(O)c2)s1 the screen gave A: -2.58%; B: -0.7874% and -7.471%. With CSc1nccc(N2CCN(C)C3(CCNC(=O)CC3)C2)n1 (stereo not shown) the screen gave A: -9.63%; B: 15.09%. Result for Cn1c(=O)[nH]c(=O)n2c(CC(=O)Nc3c(Cl)cccc3Cl)cnc12 was A: 2.711%; B: 25.35%. Result for Cn1ccnc1C1CCCN(C(=O)c2cc(F)cc(F)c2)C1 (stereo not shown) was A: -13.26% and -23.19%; B: -27.26%. O=S(=O)(NC[C@H]1OC[C@@H](NCc2cccs2)[C@@H]1O)c1ccccc1 gave A: -19.47%; B: -5.283% and -1.234%.

COc1c(CNCc2ccnc(N(C)C)c2)c(C(C)C)nn1C gave A: 9.884%; B: -2.713%. Result for COCCN1CCN(c2ccc(C)nn2)Cc2cccnc21.O=C(O)C(F)(F)F was A: 25.27%; B: 3.519% and 14.19%. With CC(C)=CCC1(CO)CCCN(S(C)(=O)=O)C1 (stereo not shown) the screen gave A: -0.9012%; B: -1.155%. For Cn1cc(C2COC3(CCN(C(=O)c4cnccn4)CC3)C2)cn1 (stereo not shown) the result was A: 9.589% and -11.07%; B: -8.478%. With CC(O)c1cccc(-n2c(CCC(=O)O)nc3ccccc32)c1 (stereo not shown) the screen gave A: 10.36%; B: 2.775%. Cc1ccc(CCc2nc(C3CCOC3)no2)o1 (stereo not shown) read A: -4.714%; B: 10.96%. Result for O=C(c1cccc(CO)n1)N1CCCC1c1nc2cc(F)ccc2[nH]1 (stereo not shown) was A: -31.54%; B: -43.95%. For c1cnc(N2CCCC(Cc3nccs3)C2)nc1 (stereo not shown) the result was A: -8.433% and -5.823%; B: 3.143%.

O=C1CN(Cc2nnc(-c3ccc(Br)cc3)o2)CCN1 read B: -21.66% and -3.77%. O=C(O)C(F)(F)F.[H][C@@]12CCN(Cc3ccc(C)o3)[C@@]1([H])CCC(=O)N2 read A: -8.643%; B: -1.641%. Cc1noc(C(C)N2CCC(c3nc4ccccc4[nH]3)CC2)n1 (stereo not shown) gave A: -2.017%; B: -39.15% and 5.709%. With Cc1ccc(C(=O)N2CCCCC2CNC(N)=O)cc1F (stereo not shown) the screen gave A: 16.04%; B: -3.789%. For Cc1nn(C)c(N2CCOCC2)c1CNCc1nccs1 the result was A: 2.007%; B: 4.366%. For CCn1cc(C(=O)NCC(C)(CC)N2CCOCC2)c2ccccc21 (stereo not shown) the result was A: -6.466% and -4.639%; B: -4.392%. Result for CC(=O)Nc1nc(C(=O)NC(C)c2ccncc2)cs1 (stereo not shown) was A: 9.964%; B: 19.05%. CCn1c(N)nc2cc(C(=O)N3CCN(c4nccs4)CC3)cnc21 gave A: 4.981%; B: 11.48%.

CCN(C(C)=O)C(c1ccc(Cl)cc1)c1ccccn1 (stereo not shown) gave A: 4.9%; B: -7.353%.

For reference, 2 entries once more:

Compound	A	B
Cn1c(=O)[nH]c(=O)n2c(CC(=O)Nc3c(Cl)cccc3Cl)cnc12	2.711	25.35
Cc1ccc(C(=O)N2CCCCC2CNC(N)=O)cc1F (stereo not shown)	16.04	-3.789

Measurements from “University of Dundee, Small-Polar-MMV Screening Library” (2021), ChEMBL document CHEMBL3988442.